Data published in article PMC4263151.
No constants are given. Whether binding was seen depends on the method and setting. In cells and extracts the contact can be indirect. Some binding calls cover weakened binding; strength is not graded here.

By UniProt entry, the sequences of proteins in these tests, tags left out.
UniProt Q06587: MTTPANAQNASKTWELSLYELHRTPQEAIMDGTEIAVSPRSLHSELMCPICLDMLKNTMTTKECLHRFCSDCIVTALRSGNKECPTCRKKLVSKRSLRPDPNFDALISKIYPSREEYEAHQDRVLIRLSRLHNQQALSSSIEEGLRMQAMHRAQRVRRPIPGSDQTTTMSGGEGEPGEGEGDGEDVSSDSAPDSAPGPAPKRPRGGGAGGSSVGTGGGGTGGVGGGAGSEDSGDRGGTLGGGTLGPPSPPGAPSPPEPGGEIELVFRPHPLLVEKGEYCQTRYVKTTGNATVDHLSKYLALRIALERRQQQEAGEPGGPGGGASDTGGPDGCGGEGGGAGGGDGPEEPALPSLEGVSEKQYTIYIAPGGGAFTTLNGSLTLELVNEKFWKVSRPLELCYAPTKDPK
UniProt Q00839: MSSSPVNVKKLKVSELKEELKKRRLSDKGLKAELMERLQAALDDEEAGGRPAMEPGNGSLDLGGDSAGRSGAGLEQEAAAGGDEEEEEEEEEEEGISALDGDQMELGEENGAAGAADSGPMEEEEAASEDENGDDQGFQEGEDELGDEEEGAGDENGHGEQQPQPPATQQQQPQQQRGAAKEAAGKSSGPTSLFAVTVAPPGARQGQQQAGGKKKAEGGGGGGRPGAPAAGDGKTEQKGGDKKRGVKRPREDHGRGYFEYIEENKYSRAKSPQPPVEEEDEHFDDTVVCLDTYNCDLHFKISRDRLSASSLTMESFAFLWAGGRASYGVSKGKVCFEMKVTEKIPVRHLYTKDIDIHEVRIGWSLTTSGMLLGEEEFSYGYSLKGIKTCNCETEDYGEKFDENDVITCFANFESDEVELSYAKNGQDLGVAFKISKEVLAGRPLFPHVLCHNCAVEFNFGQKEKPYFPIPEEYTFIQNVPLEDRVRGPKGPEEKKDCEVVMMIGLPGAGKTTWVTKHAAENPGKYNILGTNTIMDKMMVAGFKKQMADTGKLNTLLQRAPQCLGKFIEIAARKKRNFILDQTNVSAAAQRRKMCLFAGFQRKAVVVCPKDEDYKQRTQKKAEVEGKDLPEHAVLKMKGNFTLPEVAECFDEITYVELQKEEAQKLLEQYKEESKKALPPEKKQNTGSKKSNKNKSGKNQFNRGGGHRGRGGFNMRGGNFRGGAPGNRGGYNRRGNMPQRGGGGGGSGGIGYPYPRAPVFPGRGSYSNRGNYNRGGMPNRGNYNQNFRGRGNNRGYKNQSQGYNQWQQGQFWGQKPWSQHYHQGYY
UniProt P35226: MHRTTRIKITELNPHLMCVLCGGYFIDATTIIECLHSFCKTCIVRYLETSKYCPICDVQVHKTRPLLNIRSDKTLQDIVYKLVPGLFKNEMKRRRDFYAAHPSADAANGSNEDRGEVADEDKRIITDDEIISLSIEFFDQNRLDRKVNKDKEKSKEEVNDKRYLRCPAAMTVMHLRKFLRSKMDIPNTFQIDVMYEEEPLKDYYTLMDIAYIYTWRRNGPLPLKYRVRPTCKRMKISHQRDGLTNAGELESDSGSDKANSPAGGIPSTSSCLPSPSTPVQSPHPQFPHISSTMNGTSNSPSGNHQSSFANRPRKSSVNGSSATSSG
UniProt Q15022: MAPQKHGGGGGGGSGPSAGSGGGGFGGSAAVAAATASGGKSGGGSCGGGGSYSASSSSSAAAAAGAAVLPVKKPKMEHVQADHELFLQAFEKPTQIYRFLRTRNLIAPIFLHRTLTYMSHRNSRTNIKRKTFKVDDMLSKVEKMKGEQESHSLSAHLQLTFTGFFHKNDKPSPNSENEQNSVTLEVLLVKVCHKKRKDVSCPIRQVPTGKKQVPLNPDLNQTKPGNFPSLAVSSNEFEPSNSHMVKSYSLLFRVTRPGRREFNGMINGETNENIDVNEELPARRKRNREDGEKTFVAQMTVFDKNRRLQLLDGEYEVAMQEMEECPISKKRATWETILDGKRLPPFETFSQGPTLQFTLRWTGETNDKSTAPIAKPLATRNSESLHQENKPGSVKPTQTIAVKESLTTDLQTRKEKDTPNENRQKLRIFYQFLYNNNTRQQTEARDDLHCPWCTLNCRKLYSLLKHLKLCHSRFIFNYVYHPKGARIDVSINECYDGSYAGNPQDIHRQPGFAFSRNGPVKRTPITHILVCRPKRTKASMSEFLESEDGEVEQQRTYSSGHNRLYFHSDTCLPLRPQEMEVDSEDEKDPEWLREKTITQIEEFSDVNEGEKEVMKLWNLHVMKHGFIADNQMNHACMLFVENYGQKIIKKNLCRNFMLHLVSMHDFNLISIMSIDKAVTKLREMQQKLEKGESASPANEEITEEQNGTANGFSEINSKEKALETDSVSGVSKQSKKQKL
UniProt P45973: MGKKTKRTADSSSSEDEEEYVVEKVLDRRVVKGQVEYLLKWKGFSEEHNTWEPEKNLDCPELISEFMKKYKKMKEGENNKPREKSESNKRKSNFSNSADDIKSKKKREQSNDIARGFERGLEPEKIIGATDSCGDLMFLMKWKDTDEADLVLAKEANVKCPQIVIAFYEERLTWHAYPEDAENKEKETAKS

How the values were obtained:
[1] = biological target: RING1A, endogenous in BJ fibroblasts (human (endogenous in BJ fibroblasts)) (UniProt Q06587); test: co-IP; Supplementary Fig. 3h; SAFA-silenced and senescent cells and their controls; antibodies and direction not told in the text shown; taken as a co-IP from the sentences before it
[2] = biological target: scaffold-attachment-factor A (SAFA), endogenous in BJ fibroblasts (human (endogenous in BJ fibroblasts)) (UniProt Q00839); test: co-IP; endogenous proteins; EtOH-treated pre-senescent proliferating ER:Ras^V12 BJ fibroblasts (for HP1 and β-actin also 4OHT-induced cells at day 2); IP with antibody to SAFA or IgG, blots for EZH2, BMI1, HP1α and β-actin
[3] = biological target: FLAG-tagged SAFAwt (wild-type) (UniProt Q00839); test: co-IP; lysates of HEK293 cells overexpressing FLAG-tagged wild-type or mutant SAFA; IP with antibody to FLAG, blots for FLAG, BMI1 and EZH2; ratios by densitometry
[4] = biological target: scaffold-attachment-factor A (SAFA), endogenous in HEK293 cells (human (endogenous in HEK293)) (UniProt Q00839); test: co-IP; lysates of HEK293 cells overexpressing HA-BMI1, FLAG-SUZ12 or FLAG-EZH2; IP with antibodies to HA, FLAG and SAFA, blots for HA, FLAG and SAFA; 300 mM NaCl, 10 mM Tris pH 8.0, 0.5% NP-40, 1 mM EDTA, over night at 4 °C

| Substance | binding [2] | binding [4] | further results |
| --- | --- | --- | --- |
| BMI1, endogenous in HEK293 cells (from UniProt P35226 1-326) | – | – | binding [3]: binds |
| HA-tagged PRC1 component BMI1 (from UniProt P35226 1-326) | – | binds | – |

Second part, led by results:

| binding [2] | binding [4] | Substance | further results |
| --- | --- | --- | --- |
| binds | – | BMI1, endogenous in BJ fibroblasts (from UniProt P35226 1-326) | binding [1]: binds |
| – | binds | FLAG-tagged PRC2 core component SUZ12 (from UniProt Q15022 1-739) | – |
| binds | – | HP1α, endogenous in BJ fibroblasts (from UniProt P45973 1-191) | – |
